PubChem BioAssay AID1259308, NCATS – 2017

- Assay: 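Candidate targets for better recombinant protein yield in mammalian cells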 (primary screen)
- Cells: human HEK293 embryonic kidney cells stably expressing firefly luciferase (HEK-CMV-Luc2-Hygro)
- Reagents: single siRNA against human genes, 0.8 pmol siRNA per well
- Time to read-out: 72 h
- Detection: 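Luciferase light (ONE-Glo) measured on one replicate plate set and viability (CellTiter-Glo) on the other, scaled to a negative control siRNA, with robust z-scores and luciferase per cell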
- Scale: total luciferase, z-score and total luciferase, % of control: higher = more reporter protein produced; luciferase per cell, z-score: higher = more reporter output per viable cell; viable cells, % of control: higher = more viable cells
- Rule for the call: 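An siRNA counts as active if its total luciferase robust z-score exceeds 3; genes with two or more such siRNAs out of three were retested with fresh siRNAs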
- Calls: active = raised luciferase; inactive = no rise
The whole screen tested about 59,000 reagents; shown is a random part of them. Of all reagents, about 1,510 (2.6%) got an active call. 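Calls use total luciferase alone and ignore viability, so some active siRNAs may act by altering cell number.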 The numbers tell different reagents against one gene apart.

no.	gene symbol	reagent no.	total luciferase, z-score	total luciferase, % of control	luciferase per cell, z-score	viable cells, % of control	activity call
1	IRF9	1	0.375	89.4	0.242	93.7	inactive
2	IRF9	2	1.59	114	0.786	103	inactive
3	IRF9	3	-0.272	76.5	-0.517	97.9	inactive
4	ELOB	1	-0.0365	81.2	0.85	72.5	inactive
5	ELOB	2	2.56	133	2.26	81.8	inactive
6	ELOB	3	1.26	107	1.05	90.8	inactive
7	HLA-E	1	0.226	86.4	0.473	85.2	inactive
8	HLA-E	2	-0.535	71.3	-0.218	84.3	inactive
9	HLA-E	3	2.79	137	1.77	96.4	inactive
10	SH2D4A	1	-0.775	66.5	-0.86	93.2	inactive
11	SH2D4A	2	2.14	124	1.61	91	inactive
12	SH2D4A	3	-0.727	67.4	-0.08	77	inactive
13	SHISA5P1	1	1.56	113	0.793	102	inactive
14	SHISA5P1	2	0.603	93.9	-0.0503	106	inactive
15	SHISA5P1	3	-0.388	74.2	0.637	70.1	inactive
16	NOP2	1	-1.28	56.3	-0.819	78.1	inactive
17	NOP2	2	-0.814	65.7	-0.284	79.1	inactive
18	NOP2	3	-1.69	48.3	-1.22	74.5	inactive
19	TGIF2	1	0.818	98.2	1.2	79.9	inactive
20	TGIF2	2	-1.21	57.9	0.0889	63.1	inactive
21	TGIF2	3	-0.377	74.4	0.043	82.2	inactive
22	DDX31	1	0.16	85.1	0.178	90.7	inactive
23	DDX31	2	-0.925	63.5	-1.15	96	inactive
24	DDX31	3	0.712	96.1	0.0862	105	inactive
25	TBC1D10C	1	-0.949	63	0.99	54.2	inactive
26	TBC1D10C	2	1.04	103	1.15	84.6	inactive
27	TBC1D10C	3	-0.966	62.7	-0.997	91.1	inactive
28	IL11	1	1.38	109	0.794	99.1	inactive
29	IL11	2	0.808	98	1.47	74.3	inactive
30	IL11	3	-0.116	79.6	-0.258	95.2	inactive
31	ADAM2	1	-0.43	73.3	-0.558	94.9	inactive
32	ADAM2	2	0.751	96.8	0.648	91.2	inactive
33	ADAM2	3	-1.12	59.5	-0.291	71.8	inactive
34	CD6	1	0.527	92.4	0.802	83.6	inactive
35	CD6	2	-0.606	69.8	-0.772	95.6	inactive
36	CD6	3	-0.381	74.3	-0.349	91	inactive
37	RNASET2	1	-0.115	79.6	0.0426	88	inactive
38	RNASET2	2	1.73	116	0.768	106	inactive
39	RNASET2	3	-0.412	73.7	0.563	71	inactive
40	GALR2	1	-0.372	74.5	-1.59	127	inactive
41	GALR2	2	0.807	97.9	1.06	82.7	inactive
42	GALR2	3	-0.953	62.9	-0.796	86.7	inactive
43	MAGED2	1	-3.04	21.4	-1.94	39.8	inactive
44	MAGED2	2	1.94	120	0.974	104	inactive
45	MAGED2	3	1.98	121	2.41	71.9	inactive
46	NXN	1	-0.332	75.3	-0.469	95.2	inactive
47	NXN	2	-0.211	77.7	-0.864	109	inactive
48	NXN	3	0.226	86.4	0.466	85.4	inactive
49	AHRR	1	-0.512	71.7	-0.684	95.9	inactive
50	AHRR	2	4.72	176	3.03	88.4	active
51	AHRR	3	-1.08	60.4	-0.861	84.7	inactive
52	MED27	1	-1.92	43.8	-1.56	73.7	inactive
53	MED27	2	-1.24	57.3	-0.634	75.6	inactive
54	MED27	3	-1.55	51.1	-0.448	64.2	inactive
55	EMILIN1	1	-0.0923	80.1	-0.0655	91	inactive
56	EMILIN1	2	0.248	86.8	0.0743	95.1	inactive
57	EMILIN1	3	-0.452	72.9	-0.251	87	inactive

Part of the list above, showing only “luciferase per cell, z-score”.
TBC1D10C #2 = 1.15
TBC1D10C #3 = -0.997
IL11 #1 = 0.794
